Laboratory results: PubChem BioAssay AID1259308 (NCATS, 2017)
The deposit covers about 59,000 reagents; shown is an unselected part. Of all reagents, about 1,510 (2.6%) are marked active. 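Calls use total luciferase alone and ignore viability, so some active siRNAs may act by altering cell number.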 Unmarked entries are inactive. The numbers tell different reagents against one gene apart. Not all columns of the deposit are shown.

- Purpose: 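Knock-downs that increase output of a recombinant reporter protein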 (primary screen)
- System: human HEK293 embryonic kidney cells stably expressing firefly luciferase (HEK-CMV-Luc2-Hygro)
- Knock-down reagent: single siRNA against human genes, 0.8 pmol siRNA per well
- Duration: 72 h
- Read-out: 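Reporter luminescence and viable-cell signal on separate replicate plates, given as percent of non-targeting control and median/MAD z-scores, plus per-cell luciferase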
- Scale: total luciferase, z-score: higher = more reporter protein produced
- Hit rule: 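An siRNA counts as active if its total luciferase robust z-score exceeds 3; genes with two or more such siRNAs out of three were retested with fresh siRNAs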
- Meaning of the calls: active = raised luciferase; inactive = no rise

After knock-down of CHODL #1, the screen gave total luciferase, z-score 3.84 (active).
Depletion of CHODL #2 came out at: total luciferase, z-score 0.067.
CHODL #3 gave total luciferase, z-score -1.32.
After knock-down of ARMCX2 #1, the record shows total luciferase, z-score -0.604.
Depletion of ARMCX2 #2 came out at: total luciferase, z-score -0.169.
With knock-down of ARMCX2 #3, the record shows total luciferase, z-score -0.46.
With knock-down of TMEM132C #1, the screen gave total luciferase, z-score 2.25.
Silencing of TMEM132C #2 came out at: total luciferase, z-score 0.384.
TMEM132C #3 scored total luciferase, z-score 0.419.
Depletion of RIPK4 #1 gave: total luciferase, z-score -0.197.
RIPK4 #2 showed total luciferase, z-score 3.26 (active).
With knock-down of RIPK4 #3, the record shows total luciferase, z-score 2.21.
After knock-down of CRACR2A #1, the screen gave total luciferase, z-score 0.354.
CRACR2A #2 scored total luciferase, z-score -0.103.
For CRACR2A #3 the deposit lists total luciferase, z-score 0.289.
For PREX1 #1 the deposit lists total luciferase, z-score 0.855.
For PREX1 #2 the deposit lists total luciferase, z-score 0.865.
PREX1 #3 gave total luciferase, z-score -0.106.
CCDC34 #1 gave total luciferase, z-score -2.13.
With knock-down of CCDC34 #2, the screen gave total luciferase, z-score 0.83.
Silencing of CCDC34 #3 gave: total luciferase, z-score 0.2.

Copied from the list:
Result of CRACR2A #1 under “total luciferase, z-score”: 0.354
RIPK4 #1, total luciferase, z-score → -0.197
Under “total luciferase, z-score”, ARMCX2 #3 shows -0.46
Entry of CCDC34 #3 under “total luciferase, z-score”: 0.2
For “total luciferase, z-score”, CCDC34 #2 reads 0.83
Under “total luciferase, z-score”, RIPK4 #3 is entered as 2.21

Additional entries:
For KRT4 #1, the values are total luciferase, z-score 2.43.
For KRT4 #2 the deposit lists total luciferase, z-score 0.638.
For KRT4 #3 the deposit lists total luciferase, z-score 0.433.
Silencing of NRBP1 #1 came out at: total luciferase, z-score -0.899.
With knock-down of NRBP1 #2, the record shows total luciferase, z-score -0.511.
Depletion of NRBP1 #3 gave: total luciferase, z-score -0.977.
After knock-down of BCAR1 #1, the record shows total luciferase, z-score 0.686.
Knock-down of BCAR1 #2 resulted in: total luciferase, z-score -0.374.
Against BCAR1 #3, the values are total luciferase, z-score -0.874.
With knock-down of PAM16 #1, the screen gave total luciferase, z-score -2.32.
Knock-down of PAM16 #2 gave: total luciferase, z-score -0.708.
PAM16 #3 scored total luciferase, z-score -1.23.
For ALOX5AP #1, the entry reads total luciferase, z-score -0.112.
ALOX5AP #2 showed total luciferase, z-score 0.174.
After knock-down of ALOX5AP #3, the screen gave total luciferase, z-score 2.99.
With knock-down of HS3ST3A1 #1, the screen gave total luciferase, z-score -0.663.
With knock-down of HS3ST3A1 #2, the screen gave total luciferase, z-score 0.446.
With knock-down of HS3ST3A1 #3, the record shows total luciferase, z-score 0.882.
GRIPAP1 #1 showed total luciferase, z-score 0.102.
Knock-down of GRIPAP1 #2 came out at: total luciferase, z-score 0.342.
GRIPAP1 #3 gave total luciferase, z-score -0.437.
